Reference: PubChem BioAssay AID493246 (Drosophila RNAi Screening Center, 2011)
In all, the deposit lists about 21,000 reagents; this is an unselected part of those with a known target gene and a result. In the full data, 429 (2%) got an active call. 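Values are raw and not normalised between plates; calls rest on per-plate z-scores that were not deposited.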 Names joined by + are all predicted targets of the reagent. Not stated in the record: the amount of reagent, the time to read-out.

Purpose: 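Genes fly cells need to grow and stay alive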 (primary screen)
System: Drosophila Kc and S2R+ cells
Reagent: long dsRNA against Drosophila genes
Read-out: 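Cell number per well after knock-down, printed as raw plate values; calls were based on per-plate z-scores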
Direction: Kc cell number and S2R+ cell number: higher = more cells remaining
Active means: 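Counted as a hit if cell number falls by a z-score of at least 3 within its plate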

predicted target,dsRNA,"Kc cell number, rep 1","Kc cell number, rep 2","S2R+ cell number, rep 1","S2R+ cell number, rep 2",Outcome
mRpL42 (GeneID 36050),DRSC06235,1.37e6,1.45e6,1.06e6,1.09e6,inactive
Alp10 (GeneID 38632),DRSC09749,1.34e6,1.26e6,1.15e6,1.21e6,inactive
CG42527 (retired record) + Hr4,DRSC18495,1.11e6,1.08e6,5.12e5,6.05e5,active
c12.1 (GeneID 53435),DRSC18750,1.45e6,1.62e6,9.30e5,1.09e6,inactive
blot (GeneID 39939),DRSC09485,1.41e6,1.54e6,1.09e6,1.37e6,inactive
blot (GeneID 39939),DRSC11328,1.41e6,1.49e6,9.01e5,1.01e6,inactive
Dhpr (GeneID 39050),DRSC11135,1.59e6,1.57e6,1.14e6,1.15e6,inactive
boil (GeneID 31416),DRSC17872,1.53e6,1.54e6,1.12e6,1.24e6,inactive
CG5194 (GeneID 39037),DRSC10492,1.31e6,1.41e6,1.23e6,1.20e6,inactive
Drsl2 (GeneID 38408),DRSC08160,1.56e6,1.45e6,9.66e5,1.12e6,inactive
Rtel1 (GeneID 31497),DRSC18343,1.41e6,1.40e6,9.95e5,1.12e6,inactive
Tsp33B (GeneID 34590),DRSC02418,1.69e6,1.61e6,1.21e6,1.37e6,inactive
brn (GeneID 31358),DRSC18746,6.38e5,,8.76e5,,inactive
CG15237 (GeneID 35591),DRSC04971,1.66e6,1.70e6,1.26e6,1.37e6,inactive
Lerp (GeneID 43223),DRSC14750,1.50e6,1.51e6,9.39e5,1.05e6,inactive
Lerp (GeneID 43223),DRSC14751,1.50e6,1.52e6,1.02e6,1.12e6,inactive
Lerp (GeneID 43223),DRSC16030,1.44e6,1.43e6,9.71e5,1.06e6,inactive
Lerp (GeneID 43223),DRSC16031,1.50e6,1.51e6,9.62e5,1.07e6,inactive
CG3902 (GeneID 40059),DRSC10387,1.62e6,1.83e6,1.18e6,1.39e6,inactive
Arr2 (GeneID 38993),DRSC09670,1.48e6,1.71e6,1.30e6,1.29e6,inactive
scyl (GeneID 39270),DRSC11392,1.33e6,1.25e6,1.32e6,1.36e6,inactive
Usp32 (GeneID 40169),DRSC10979,1.36e6,1.68e6,1.25e6,1.34e6,inactive
CG18190 (GeneID 37179),DRSC06714,1.75e6,1.72e6,1.18e6,1.35e6,inactive
ND-13A (GeneID 33744),DRSC03110,1.75e6,1.62e6,9.70e5,1.14e6,inactive
Dhc93AB (GeneID 42485),DRSC16644,1.16e6,1.27e6,1.10e6,1.14e6,inactive
Eig71Eh (GeneID 39709),DRSC11155,1.32e6,1.42e6,1.23e6,1.36e6,inactive
CG14518 (GeneID 43421),DRSC14870,1.60e6,1.60e6,1.06e6,1.21e6,inactive
Syt12 (GeneID 32290),DRSC19359,1.60e6,1.49e6,1.12e6,1.19e6,inactive
CG1850 (GeneID 35647),DRSC06762,1.43e6,1.57e6,1.24e6,1.34e6,inactive
CG10029 (GeneID 40883),DRSC12498,1.61e6,1.79e6,1.48e6,1.61e6,inactive
Nep6 (GeneID 32234),DRSC19877,4.80e5,,6.02e5,,inactive
CG13455 (GeneID 39667),DRSC10002,1.44e6,1.53e6,1.30e6,1.37e6,inactive
CG7607 (GeneID 39263),DRSC10889,1.36e6,1.42e6,1.33e6,1.34e6,inactive
Pos (GeneID 43762),DRSC15415,1.51e6,1.52e6,1.05e6,1.09e6,inactive
CG42741 (GeneID 37654),DRSC04593,1.70e6,1.75e6,1.29e6,1.47e6,inactive
CG9213 (GeneID 32490),DRSC20170,5.49e5,,7.92e5,,inactive
CG7639 (GeneID 36675),DRSC07026,1.47e6,1.52e6,1.33e6,1.40e6,inactive
CG18266 (GeneID 33792),DRSC02659,1.36e6,1.69e6,2.96e5,2.10e5,inactive
MED17 (GeneID 42175),DRSC16889,1.59e6,1.71e6,1.15e6,1.25e6,inactive
Dh44-R2 (GeneID 36368),DRSC06141,1.63e6,1.62e6,1.24e6,1.38e6,inactive
Dh44-R2 (GeneID 36368),DRSC06281,1.75e6,1.70e6,1.21e6,1.38e6,inactive
Rm62 (GeneID 40739),DRSC12365,1.21e6,1.29e6,8.82e5,9.58e5,inactive
TyrRII (GeneID 42135),DRSC15150,1.27e6,1.37e6,8.26e5,9.68e5,inactive
l(2)41Ab (GeneID 5740691),DRSC21007,1.19e6,1.38e6,1.11e6,1.22e6,inactive
Roe1 (GeneID 36508),DRSC07534,1.45e6,1.48e6,1.10e6,1.10e6,inactive
tio (GeneID 44272),DRSC03739,1.49e6,1.63e6,1.36e6,3.16e5,inactive
Inx7 + cm,DRSC18753,5.47e5,,9.21e5,,inactive
CG14292 (GeneID 42264),DRSC14772,1.35e6,1.31e6,9.46e5,1.06e6,inactive
CG13958 (retired record) (GeneID 35271),DRSC02300,1.57e6,1.55e6,1.24e6,3.17e5,inactive
AANATL5 (GeneID 37210),DRSC05994,1.66e6,1.63e6,1.12e6,1.19e6,inactive
Gr77a (GeneID 117476),DRSC11446,1.34e6,1.64e6,1.15e6,1.36e6,inactive
Ilp1 (GeneID 39149),DRSC10174,1.38e6,1.53e6,1.21e6,1.27e6,inactive
Jarid2 (GeneID 39103),DRSC10372,1.29e6,1.37e6,1.21e6,1.18e6,inactive
U4-U6-60K (GeneID 39955),DRSC10624,1.40e6,1.46e6,1.10e6,1.15e6,inactive
Gad1 (GeneID 38484),DRSC08661,9.95e5,1.14e6,9.13e5,8.93e5,inactive
IntS8 (GeneID 36886),DRSC07417,1.15e6,1.20e6,1.03e6,1.13e6,inactive
Ns4 (GeneID 35338),DRSC03199,1.03e6,1.20e6,8.99e5,6.96e5,inactive
BomBc3 (GeneID 50055),DRSC15873,1.35e6,1.33e6,1.19e6,1.28e6,inactive
RpL24-like (GeneID 41372),DRSC16111,1.61e6,1.56e6,1.02e6,1.08e6,inactive

Entries above whose gene name begins with R or r:
predicted target,dsRNA,"Kc cell number, rep 1","Kc cell number, rep 2","S2R+ cell number, rep 1","S2R+ cell number, rep 2",Outcome
Rtel1 (GeneID 31497),DRSC18343,1.41e6,1.40e6,9.95e5,1.12e6,inactive
Rm62 (GeneID 40739),DRSC12365,1.21e6,1.29e6,8.82e5,9.58e5,inactive
Roe1 (GeneID 36508),DRSC07534,1.45e6,1.48e6,1.10e6,1.10e6,inactive
RpL24-like (GeneID 41372),DRSC16111,1.61e6,1.56e6,1.02e6,1.08e6,inactive
